These are yes or no findings as the source states them, for the method shown. In cells and extracts the contact can be indirect. Some results given as binding are weak or reduced against the parent protein; the word gives no strength.
Target: Calreticulin (CRT), endogenous mouse (mouse (endogenous in GT1)) (UniProt P14211)
Assay: co-IP; Calreticulin immunoprecipitated from GT1 lysates (JS buffer, 1% TX-100, 150 mM NaCl, pH 7.5) with anti-CRT Ab and protein A-Sepharose overnight at 4 °C; Sho revealed by Western blot with SPRN-R12; cells under control conditions or cholesterol depletion (βCD 10 mM, 1 h)

Sequences of proteins named here, by UniProt entry; tags and fusion partners are left off. Residues count along the entry.
UniProt P14211, residues 18-416: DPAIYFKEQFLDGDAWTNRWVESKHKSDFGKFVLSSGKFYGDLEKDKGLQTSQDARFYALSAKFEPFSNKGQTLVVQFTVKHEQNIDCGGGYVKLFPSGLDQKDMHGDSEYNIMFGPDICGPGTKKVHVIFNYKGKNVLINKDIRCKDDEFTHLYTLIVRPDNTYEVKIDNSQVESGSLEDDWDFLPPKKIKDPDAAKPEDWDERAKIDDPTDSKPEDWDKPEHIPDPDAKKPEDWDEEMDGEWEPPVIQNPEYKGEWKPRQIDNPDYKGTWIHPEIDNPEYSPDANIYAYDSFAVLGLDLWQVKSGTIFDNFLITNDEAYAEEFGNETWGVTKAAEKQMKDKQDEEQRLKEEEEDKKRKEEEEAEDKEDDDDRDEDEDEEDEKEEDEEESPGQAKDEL

Row | Binder | binding
1 | Shadoo (Sho), mature fully glycosylated ~22 kDa isoform, endogenous mouse (natural protein, mouse (endogenous in GT1), UniProt Q8BWU1 25-122, looked up, fully N-glycosylated (complex-glycosylated), Shadoo (Sho, SPRN), mouse, the mature fully glycosylated isoform that migrates at ~22 kDa; also called mature Sho; mature glycosylated Sho; source: endogenous, GT1 lysate) KGGRGGARGSARGVRGGARGASRVRVRPAPRYGSSLRVAAAGAAAGAAAGVAAGLATGSGWRRTSGPGELGLEDDENGAMGGNGTDRGVYSYWAWTSG | binds
2 | Shadoo (Sho), unglycosylated ~14 kDa isoform, endogenous mouse (protein, UniProt Q8BWU1 25-122) KGGRGGARGSARGVRGGARGASRVRVRPAPRYGSSLRVAAAGAAAGAAAGVAAGLATGSGWRRTSGPGELGLEDDENGAMGGNGTDRGVYSYWAWTSG | binds

From article PMC5473912, “Regulation of sub-compartmental targeting and folding properties of the Prion-like protein Shadoo” (Scientific Reports, 2017)
